Source: PubChem BioAssay AID504834 (National Center for Advancing Translational Sciences (NCATS), 2011)
Screen size: about 320,000 compounds; about 22,000 (6.9%) were called active. The shares of active, inactive and inconclusive entries below differ from those in the screen. The call rests on the fitted dose curve; in most records, active means well fitted inhibition curve with a large enough effect; inconclusive means small, poorly fitted or top-dose-only effect, or another doubt; inactive means no such curve, though single readings can be large or run the other way. Potencies beside an inconclusive call are fits to weak or partial responses and may not hold up.

Experiment: Primary qHTS for delayed death inhibitors of the malarial parasite plastid, 96 hour incubation
Settings: P. falciparum luciferase reporter growth; series mostly up to 28.7 µM
How it was run: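 Infected RBCs, 2% Hct / 0.05% parasitemia final; luciferase-reporter P. falciparum; cpd 96 h, 37 C, 5% CO2; luciferase detection reagent; luminescence.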
On the % scale 0 is the no-effect control and ±100 the full control effect; potency means the concentration at half of the fitted maximal effect.

Question: Which Potency does the source give for CC(=O)NC12CC3CC(C1)CC(C(=O)N(C)CC(=O)Nc1ccc(F)c(F)c1F)(C3)C2 here?
Answer: Its Potency is inconclusive: 18.5 µM [inhibitor, single point].

Question: For Cc1ccc([N+](=O)[O-])cc1S(=O)(=O)Nc1ccc(-c2ccc(N3CCOCC3)nn2)cc1, which Potency is on record?
Answer: Its Potency is inconclusive: 2.62 µM [inhibitor, full curve, poor fit].

Question: Which Potency does the source give for O=C(Nc1ccc(-c2nc3ccccc3o2)cc1)c1ccc(N2CCOCC2)c([N+](=O)[O-])c1 here?
Answer: Its Potency is inconclusive: 0.928 µM [inhibitor, full curve, poor fit].

Question: Which Potency does the source give for CCC(C)(C)NC(=O)C(c1ccco1)N(C(=O)c1csnn1)c1cccc(F)c1 (stereo not drawn) here?
Answer: The Potency was inconclusive: 0.0029 µM [inhibitor, full curve, poor fit].

Question: Which Potency does the source give for CSc1nnc(-c2ccc(Br)s2)n1C here?
Answer: Its Potency is “inactive”.

Question: Which Potency does the source give for CC(=O)Oc1ccc(-c2cccc(C(=O)OCC(=O)Nc3ccccc3Oc3ccccc3)c2)cc1 here?
Answer: Its Potency is inconclusive: 5.86 µM [inhibitor, partial curve, poor fit].

Question: For O=c1[nH]c2cc3c(cc2cc1CN(CC1CCCO1)S(=O)(=O)c1ccccc1)OCCO3 (stereo not drawn), which Potency is on record?
Answer: Its Potency is inconclusive: 10.4 µM [inhibitor, single point].

Question: With N/C(=N\OC(=O)c1ccc(Cl)cc1[N+](=O)[O-])c1cccnc1 as the molecule, how does the Potency read?
Answer: The Potency was inconclusive: 18.5 µM [inhibitor, single point].

Question: Which Potency does the source give for N=c1c(C(=O)NCc2ccc3c(c2)OCO3)cc2c(=O)n3ccccc3nc2n1Cc1cccnc1 here?
Answer: The Potency was “inactive”.

Question: With COc1ccc(CC(=O)Nc2ccc(C(=O)O)cc2NC(=O)Cc2ccc(OC)cc2)cc1 as the molecule, how does the Potency read?
Answer: The Potency was inconclusive: 1.31 µM [inhibitor, full curve].

Question: With Cc1ccc(N2CCN(S(=O)(=O)N3CCCCCC3)CC2)cc1Cl as the molecule, how does the Potency read?
Answer: The Potency was “inactive”.

Question: For COc1ccc(CCNC(=O)CCCCCn2c(SCC(N)=O)nc3cc4c(cc3c2=O)OCO4)cc1OC, which Potency is on record?
Answer: The Potency was inconclusive: 10.4 µM [inhibitor, partial curve, poor fit].

Question: For COC(=O)c1cc2ccsc2n1CC(=O)N1CCCc2ccccc21, which Potency is on record?
Answer: Its Potency is inconclusive: 4.15 µM [inhibitor, single point].

Question: With CCCn1c(=O)c2ccccc2n2c(SCCOc3ccccc3)nnc12 as the molecule, how does the Potency read?
Answer: The Potency was inconclusive: 11.7 µM [inhibitor, single point].

Question: With Cc1cc(C)n2nc(C(=O)Nc3nnc(C4CC4)s3)nc2n1 as the molecule, how does the Potency read?
Answer: The Potency was “inactive”.

Question: Which Potency does the source give for Fc1cc(NC(=S)NCc2ccc(CNC(=S)Nc3ccc(Cl)c(F)c3)cc2)ccc1Cl here?
Answer: The Potency was inconclusive: 18.5 µM [inhibitor, single point].

Question: Which Potency does the source give for CCCCCN(C(=O)COC(=O)CSc1ccc([N+](=O)[O-])cc1)c1c(N)n(CCCC)c(=O)[nH]c1=O here?
Answer: The Potency was “inactive”.

Question: Which Potency does the source give for CN(C)CCCN1C(=O)c2cccc3c([N+](=O)[O-])ccc(c23)C1=O here?
Answer: The Potency was “inactive”.

Question: For CCOC(=O)Cc1csc(NC(=O)c2ccc(S(=O)(=O)N3CCCCC3)cc2)n1, which Potency is on record?
Answer: The Potency was active: 5.86 µM.

Question: With CC(C)C(=O)N1CCC(n2nccc2NC(=O)CCc2ccccc2)CC1 as the molecule, how does the Potency read?
Answer: Its Potency is inconclusive: 18.5 µM [inhibitor, single point].

Question: For CCOc1ccc(S(=O)(=O)N2CCc3cc(OC)c(OC)cc3C2)cc1, which Potency is on record?
Answer: The Potency was inconclusive: 18.5 µM [inhibitor, single point].

Question: Which Potency does the source give for CCOc1ccc(C2C(C#N)=C(N)SC(N)=C2C#N)cc1OCC here?
Answer: Its Potency is “inactive”.

Question: With CCN(CC)S(=O)(=O)c1cc(NC(=O)CCNC(=O)c2ccccc2Cl)ccc1C as the molecule, how does the Potency read?
Answer: The Potency was inconclusive: 13.1 µM [inhibitor, single point].

Question: Which Potency does the source give for COc1ccc(Oc2ccc(/C=N/NC(=O)c3cccnc3)cc2[N+](=O)[O-])cc1 here?
Answer: The Potency was “inactive”.

Question: Which Potency does the source give for O=C(NCc1ccccn1)c1ccc(/C=N/O)nc1 here?
Answer: The Potency was inconclusive: 10.4 µM [inhibitor, single point].

Question: For CCn1c(COc2c(C)cccc2C)nnc1SCC(=O)N1CCN(c2ccccc2)CC1, which Potency is on record?
Answer: Its Potency is inconclusive: 18.5 µM [inhibitor, single point].

Question: With Cc1ccc(-c2nc(N)sc2-c2ccccc2)cc1C as the molecule, how does the Potency read?
Answer: Its Potency is inconclusive: 18.5 µM [inhibitor, single point].

Question: With Cc1ccc(C(=O)NNC(=O)CNc2cccc(Cl)c2)cc1 as the molecule, how does the Potency read?
Answer: Its Potency is inconclusive: 10.4 µM [inhibitor, single point].

Question: With CCOC(=O)C1CCCN(CC(=O)Nc2c(C(=O)OC)[nH]c3ccccc23)C1 (stereo not drawn) as the molecule, how does the Potency read?
Answer: Its Potency is inconclusive: 9.28 µM [inhibitor, single point].

Question: With Cc1ccc(-n2c(-c3ccccc3)n[nH]c2=S)c(C)c1 as the molecule, how does the Potency read?
Answer: The Potency was active: 13.1 µM.

Question: With C=CCSc1nnc(NC(=O)c2cn(CC)c3nc(C)ccc3c2=O)s1 as the molecule, how does the Potency read?
Answer: The Potency was inconclusive: 3.7 µM [inhibitor, single point].

Question: For Cc1ccc(CNCC(O)(c2ccccc2)c2ccc(F)cc2)cc1 (stereo not drawn), which Potency is on record?
Answer: The Potency was “inactive”.

Question: For COc1ccc2c(c1)C=C([C@@H]1C[C@H]3CN(c4ccccc4)C(=O)[C@]34CCCN14)CO2, which Potency is on record?
Answer: The Potency was inconclusive: 18.5 µM [inhibitor, partial curve, poor fit].

Question: For COc1ccc(/C=C/C(=O)O/N=C(\N)c2cccnc2)cc1OC, which Potency is on record?
Answer: Its Potency is inconclusive: 18.5 µM [inhibitor, single point].

Question: Which activity change, negative = inhibition does the source give for CCCCCCn1cc(C(=O)O)c(=O)c2ccccc21 here?
Answer: Its activity change, negative = inhibition is inactive: -1.16% [at 5.75 µM].

Question: With O=C(CSc1cn[nH]n1)Nc1ccccc1C(F)(F)F as the molecule, how does the Potency read?
Answer: The Potency was “inactive”.

Question: For O=C1COc2ccc(S(=O)(=O)N3CCC(C(=O)NCc4ccc(F)cc4)CC3)cc2N1, which Potency is on record?
Answer: The Potency was “inactive”.

Question: Which Potency does the source give for Nc1ccc2oc(C3CCCCC3)nc2c1 here?
Answer: The Potency was inconclusive: 13.1 µM [inhibitor, partial curve, poor fit].

Question: Which Potency does the source give for CC(NC(=O)Cc1ccc(NC2=NC3CS(=O)(=O)CC3S2)cc1)c1ccccc1 (stereo not drawn) here?
Answer: Its Potency is inconclusive: 16.5 µM [inhibitor, single point].

Question: For Cc1ccc(-c2csc(NCCn3c(-c4ccncc4)nc4ccccc43)n2)cc1, which Potency is on record?
Answer: The Potency was “inactive”.

Question: Which Potency does the source give for Cc1cccc(NC(=O)C2c3ccccc3C(=O)N3CCc4ccccc4C23)n1 (stereo not drawn) here?
Answer: Its Potency is “inactive”.

Question: Which Potency does the source give for Cc1cc(C[n+]2ccsc2N)c2ncccc2c1 here?
Answer: The Potency was inconclusive: 13.1 µM [inhibitor, single point].

Question: With CC1=C(C(=O)Nc2ccc(C)cc2)C(c2ccc(N(C)C)cc2)NC(=O)N1 (stereo not drawn) as the molecule, how does the Potency read?
Answer: The Potency was inconclusive: 0.165 µM [inhibitor, full curve, poor fit].

Question: Which Potency does the source give for O=C(O)CC1(CC(=O)Nc2ccccc2N2CCOCC2)CCCC1 here?
Answer: Its Potency is “inactive”.

Question: With O=C(NC1CCCCC1)c1cccc(OCc2ccccc2)c1 as the molecule, how does the Potency read?
Answer: Its Potency is inconclusive: 7.38 µM [inhibitor, partial curve].

Question: Which Potency does the source give for CCn1cc(C=C2C(=O)c3ccccc3C2=O)c2ccccc21 here?
Answer: Its Potency is inconclusive: 18.5 µM [inhibitor, single point].

Question: Which Potency does the source give for CCOC(=O)c1c(-c2ccc(F)cc2)csc1NC(=O)C1CC=CCC1C(=O)O (stereo not drawn) here?
Answer: The Potency was “inactive”.

Question: With COc1ccc(OC)c(S(=O)(=O)NC2CCSc3ccccc32)c1 (stereo not drawn) as the molecule, how does the Potency read?
Answer: The Potency was “inactive”.

Question: For O=C(NCc1n[nH]c(=S)n1-c1ccc(Cl)c(Cl)c1)c1cccs1, which Potency is on record?
Answer: The Potency was inconclusive: 4.65 µM [inhibitor, partial curve].

Question: For O=C(CSCc1ccccc1)NCCCN1CCOCC1, which Potency is on record?
Answer: Its Potency is inconclusive: 18.5 µM [inhibitor, single point].

Question: Which Potency does the source give for COCC(C)n1c(SCc2cc(=O)n3cc(C)ccc3n2)nc2ccccc2c1=O (stereo not drawn) here?
Answer: Its Potency is inconclusive: 5.86 µM [inhibitor, partial curve, poor fit].

Question: For Cc1ccccc1N1CCN(CCCN2C(=O)CC(=C(c3ccccc3)c3ccccc3)C2=O)CC1, which activity change, negative = inhibition is on record?
Answer: Its activity change, negative = inhibition is inactive: 2.39% [at 5.75 µM].

Question: With CN1CCN(/C=N/c2sc3c(c2C#N)CCCCC3)CC1 as the molecule, how does the Potency read?
Answer: The Potency was “inactive”.

Question: For O=C(Nc1ccc(C(F)(F)F)cc1)c1ccc(NC(=O)C2CCCO2)cc1 (stereo not drawn), which Potency is on record?
Answer: The Potency was inconclusive: 10.4 µM [inhibitor, partial curve, poor fit].

Question: With O=C(CCc1ccc(S(=O)(=O)NC2CCCCC2)cc1)NCc1ccccn1 as the molecule, how does the Potency read?
Answer: Its Potency is “inactive”.

Question: Which Potency does the source give for O=C(NCc1ccc2c(c1)OCO2)c1ccc(CS(=O)(=O)c2cccc(C(F)(F)F)c2)o1 here?
Answer: The Potency was inconclusive: 9.28 µM [inhibitor, partial curve, poor fit].

Question: With CC(C)C(C)(C#N)NC(=O)CSc1nc2scc(-c3ccc(F)cc3)c2c(=O)n1Cc1ccccc1 (stereo not drawn) as the molecule, how does the Potency read?
Answer: Its Potency is active: 4.65 µM.

Question: For CC(=O)c1cc(CC=C(C)C)c(O)cc1O, which Potency is on record?
Answer: The Potency was “inactive”.

Question: Which Potency does the source give for CCOC(=O)C(NC(C)=O)(Nc1ccc(S(=O)(=O)Nc2nccs2)cc1)C(F)(F)F (stereo not drawn) here?
Answer: The Potency was inconclusive: 1.47 µM [inhibitor, full curve].

Question: With O=C(CSc1nnc(CNC(=O)C23CC4CC(CC(C4)C2)C3)n1-c1ccccc1)Nc1ccccc1 as the molecule, how does the Potency read?
Answer: The Potency was inconclusive: 11.7 µM [inhibitor, partial curve].

Question: With COc1ccc(C(=O)CCC(=O)Nc2cccc(Cl)c2)cc1 as the molecule, how does the Potency read?
Answer: The Potency was inconclusive: 16.5 µM [inhibitor, partial curve, poor fit].

Question: With O=c1[nH]c(O)c(C=NC2CCN(Cc3ccccc3)CC2)c(=O)[nH]1 as the molecule, how does the Potency read?
Answer: Its Potency is inconclusive: 16.5 µM [inhibitor, partial curve, poor fit].

Question: With CN1CCN(C(=O)c2ccc3c(c2)OCCO3)CC1 as the molecule, how does the Potency read?
Answer: The Potency was inconclusive: 18.5 µM [inhibitor, partial curve, poor fit].

Question: With CN1CCN(Cc2nc3ccccc3c(=O)n2Cc2nc(-c3cccc([N+](=O)[O-])c3)cs2)CC1 as the molecule, how does the Potency read?
Answer: Its Potency is active: 2.33 µM.

Question: With COc1ccc(NC(=O)NNS(=O)(=O)c2ccc(OC)c(OC)c2)c(OC)c1 as the molecule, how does the Potency read?
Answer: The Potency was “inactive”.

Question: With CCN(CC)CCCNC(=O)c1nn(-c2ccc(OC)cc2OC)c(=O)c2ccccc12 as the molecule, how does the Potency read?
Answer: Its Potency is inconclusive: 0.465 µM [inhibitor, full curve, poor fit].

Question: Which Potency does the source give for CC(=O)Nc1cccc(C(=O)Oc2cccc(C)c2)c1O here?
Answer: The Potency was inconclusive: 16.5 µM [inhibitor, single point].

Question: Which Potency does the source give for Cc1nc2ccccc2n1/N=C/c1ccc([N+](=O)[O-])s1 here?
Answer: The Potency was active: 4.15 µM.
